Measured values from paper PMC11633376.

By UniProt entry, the sequences of proteins in these tests, tags left out.
UniProt A0R0B3: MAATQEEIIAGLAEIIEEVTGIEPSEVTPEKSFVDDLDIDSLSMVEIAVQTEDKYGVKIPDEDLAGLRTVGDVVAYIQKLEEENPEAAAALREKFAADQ

Target: Mycobacterium smegmatis mycobacterial membrane protein large 5 (MmpL5) transporter (M. smegmatis) (UniProt A0QS80)
Assay: cryo-EM structure; single-particle cryo-EM of the purified MmpL5 sample (2.0 mg/mL, 20 mM Na-HEPES pH 7.5, 0.005% LMNG) holding copurified endogenous AcpM; 2.81 Å; both purified

Mycobacterium smegmatis meromycolate extension acyl carrier protein M (AcpM) (from UniProt A0R0B3 1-99)
binding: binds

Results are given in words; binding and its absence hold for the method and conditions named. Binding seen in cells or lysates may run through a third protein. Binding can be weak; no strength is given.
